Results from PMC7764960, “Nucleus Accumbens-Associated Protein 1 Binds DNA Directly through the BEN Domain in a Sequence-Specific Manner”.
For some of these results: A weaker result is weaker than the reference pair of the same experiment. Tags and fusion partners may be left off the protein sequences shown. For some of these results: Construct, isoform or probe ends are uncertain for at least one entry.

What was measured:
[1] = target: T1, NAC1 (322-485) (Homo sapiens) (UniProt Q96RE7); experiment: ITC; conditions: ITC: 20 mM HEPES pH 7.0, 0.1 M NaCl, 1 mM TCEP, 20 C (Fig 2 legend says 25 C), recombinant protein, residues 322-485
T1 sequence (looked up): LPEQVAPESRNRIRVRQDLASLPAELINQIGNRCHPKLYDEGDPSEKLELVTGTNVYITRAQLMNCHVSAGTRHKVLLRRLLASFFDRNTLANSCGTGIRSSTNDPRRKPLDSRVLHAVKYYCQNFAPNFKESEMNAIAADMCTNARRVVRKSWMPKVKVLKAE

GST-NAC1 (Homo sapiens) = target: T2, GST-NAC1 (Homo sapiens) (UniProt Q96RE7); experiment: pull-down; conditions: poly(dI/dC); pull-down: 4 C with 10 ug poly(dI/dC), buffer not stated; recombinant protein; residues 2-527; protein details: GST N-term; label: 5' biotin on sense strand
T2 sequence (looked up): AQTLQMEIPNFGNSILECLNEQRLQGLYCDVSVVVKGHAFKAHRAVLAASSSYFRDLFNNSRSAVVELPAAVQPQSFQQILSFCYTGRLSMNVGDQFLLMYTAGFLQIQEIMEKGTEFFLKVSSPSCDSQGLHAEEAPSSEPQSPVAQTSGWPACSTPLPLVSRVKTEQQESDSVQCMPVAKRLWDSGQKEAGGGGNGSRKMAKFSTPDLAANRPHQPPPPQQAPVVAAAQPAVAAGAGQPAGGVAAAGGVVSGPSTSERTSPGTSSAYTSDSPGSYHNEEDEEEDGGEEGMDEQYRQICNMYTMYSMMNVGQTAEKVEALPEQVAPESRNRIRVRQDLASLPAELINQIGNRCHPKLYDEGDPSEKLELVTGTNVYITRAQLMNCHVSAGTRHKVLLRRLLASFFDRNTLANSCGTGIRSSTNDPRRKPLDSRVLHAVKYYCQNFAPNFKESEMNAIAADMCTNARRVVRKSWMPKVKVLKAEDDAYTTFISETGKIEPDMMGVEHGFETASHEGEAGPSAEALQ

## GTATGCATGTATGT [GP1 14-mer ssDNA]
[1]; first event (Kd1), single-stranded DNA
  Kd: 0.2 µM
[1]; second event (Kd2), single-stranded DNA
  Kd: 0.46 µM

## GTATGGCATTATGT (double strand) [GP1 mut 14-mer dsDNA]
[1]; first event (Kd1)
  Kd: 135 µM

## TGTGTGTGTATGGCATTATGTATTTATT (double strand) [Biotin-GP1 mut]
GST-NAC1 (Homo sapiens)
  binding result: binds more weakly
